PubChem BioAssay AID743454 – Peter MacCallum Cancer Centre – 2014
In all, the deposit lists about 18,000 reagents; this is a random part of them. 450 of all reagents (2.5%) count as active. 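Single biological run; no consistent viability z cut-off exists, so the class columns, not z-scores, define the calls.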

Assay: 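Search for knock-downs that restore vorinostat killing in resistant colon cancer cells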 (primary screen)
Cell system: human HCT116-VR colon cancer cells, selected for vorinostat resistance
Reagents: siRNA pool against human genes, 40 nM siRNA pool
Timing: vorinostat for 24 h, read-out about 72 h after transfection
Challenge: vorinostat at 2.5 µM final
Measured: 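Cell viability by CellTiter-Fluor and caspase 3/7 activity by luminescence, each scaled to mock wells per plate, duplicates averaged, then robust z-scored over all plates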
Scale: viability robust z-score: higher = more viable cells than screen typical; caspase robust z-score: higher = more caspase 3/7 activity than screen typical
Hit rule: 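Hits are knock-downs in viability class RV1/RV2 or caspase class CA1/CA2, excluding ones that killed cells in the no-drug cell-count arm; hits then retested with single siRNAs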

Silencing of CENPV came out at: viability hit class no change; caspase hit class no change; viability robust z-score 0.14; caspase robust z-score 5; inactive.
For CLSTN1 the deposit lists viability hit class no change; caspase hit class no change; viability robust z-score -0.07; caspase robust z-score 1.19; inactive.
After knock-down of FOXRED1 the results were viability hit class no change; caspase hit class no change; viability robust z-score -0.02; caspase robust z-score -0.5; inactive.
Silencing of MAPKAPK3 gave: viability hit class no change; caspase hit class no change; viability robust z-score 0.04; caspase robust z-score 0.8; inactive.
Knock-down of OR4X2 resulted in: viability hit class no change; caspase hit class no change; viability robust z-score -0.08; caspase robust z-score 0.5; inactive.
ZNF430 gave viability hit class no change; caspase hit class no change; viability robust z-score 0.08; caspase robust z-score -0.83; inactive.
DLGAP4 gave viability hit class no change; caspase hit class no change; viability robust z-score 0.07; caspase robust z-score -0.8; inactive.
With knock-down of SAMM50, the screen gave viability hit class no change; caspase hit class no change; viability robust z-score -2.12; caspase robust z-score 2.46; inactive.
Depletion of PYGL gave: viability hit class no change; caspase hit class no change; viability robust z-score -0.14; caspase robust z-score -0.21; inactive.
For NAT9, the entry reads viability hit class no change; caspase hit class no change; viability robust z-score 0.04; caspase robust z-score -0.12; inactive.
Knock-down of KCNJ13 resulted in: viability hit class no change; caspase hit class no change; viability robust z-score 0.52; caspase robust z-score 0.31; inactive.
CIMIP5 showed viability hit class no change; caspase hit class no change; viability robust z-score 0.86; caspase robust z-score 0.82; inactive.
Depletion of G6PC2 gave: viability hit class no change; caspase hit class no change; viability robust z-score 0.3; caspase robust z-score -0.84; inactive.

An excerpt from the list above, for reference:
FOXRED1 | viability hit class: no change; caspase hit class: no change; viability robust z-score: -0.02; caspase robust z-score: -0.5; activity call: inactive
MAPKAPK3 | viability hit class: no change; caspase hit class: no change; viability robust z-score: 0.04; caspase robust z-score: 0.8; activity call: inactive
OR4X2 | viability hit class: no change; caspase hit class: no change; viability robust z-score: -0.08; caspase robust z-score: 0.5; activity call: inactive

Next records follow:
BNIP3 gave viability hit class no change; caspase hit class no change; viability robust z-score 0.06; caspase robust z-score -0.74; inactive.
BHMT2 gave viability hit class no change; caspase hit class no change; viability robust z-score -0.43; caspase robust z-score 0.81; inactive.
With knock-down of GM2A the results were viability hit class no change; caspase hit class no change; viability robust z-score 0.52; caspase robust z-score -0.49; inactive.
ATP2A1 showed viability hit class no change; caspase hit class no change; viability robust z-score -2.15; caspase robust z-score 0.8; inactive.
Against PDZRN3, the entry reads viability hit class no change; caspase hit class no change; viability robust z-score 0.45; caspase robust z-score -0.56; inactive.
After knock-down of CCDC183 the results were viability hit class no change; caspase hit class no change; viability robust z-score -0.21; caspase robust z-score -0.89; inactive.
For KRTAP22-1, the entry reads viability hit class no change; caspase hit class no change; viability robust z-score -1.28; caspase robust z-score -0.53; inactive.
Depletion of PIK3CB came out at: viability hit class no change; caspase hit class no change; viability robust z-score -1.15; caspase robust z-score -0.31; inactive.
